{
  "source": "patent US20240317732A1",
  "about": "“A NEW MOLECULAR SCAFFOLD FOR TARGETING HRPN13” (THE UNITED STATES OF AMERICA AS REPRESENTED BY THE …, priority 2021, published 2024)",
  "system": "hRpn13 / hRpn13-Pru",
  "experiment": "Immunoblot of hRpn13 species in RPMI 8226 cell lysates",
  "type": "cell-based, human",
  "settings": "RPMI 8226, 40 μM, 24 hours",
  "procedure": "HCT116 WT, HCT116 trRpn13, RPMI 8226 or 293T cells were collected and washed with PBS followed by lysing in 1% Triton-TBS lysis buffer (50 mM Tris-HCl, pH 7.5, 150 mM NaCl, 1 mM PMSF) supplemented with protease inhibitor cocktail (Roche). Total protein concentration was determined by bicinchoninic acid (Pierce). Protein lysates were prepared in 1χ LDS (ThermoFisher, NP0007) buffer with 100 mM DTT and heating at 70° C. for 10 min, loaded onto 4-12% Bis-Tris polyacrylamide gels (Life Technologies), subjected to SDS-PAGE and transferred to Invitrolon polyvinylidene difluoride membranes (Life Technologies). The membranes were blocked in Tris-buffered saline with 0.1% Tween-20 (TBST) supplemented with 5% skim milk, incubated with primary antibody, washed in TBST, incubated with secondary antibody and washed extensively in TBST. Pierce™ ECL Western Blotting Substrate (32106; Thermo Fisher Scientific) or Amersham™ ECL™ Primer Western Blotting Detection Reagent (cytiva) was used for antibody signal detection.\nTo test whether the XL5-PROTACs cause ubiquitination and degradation of hRpn13, lysates from RPMI 8226 (FIG. 5C) cells treated with 40 μM XL5 orXL5-PROTAC compared to DMSO vehicle control were immunoprobed for hRpn13 and β-actin (loading control).",
  "note": "At least one structure is not confirmed: it was looked up by name or label, or the drawing left a doubt.",
  "data": [
    {"molecule": "CN[C@@H](C)C(=O)N[C@H](C(=O)N1C[C@@H](NC(=O)CCCCc2cn(-c3ccc(C(=O)Nc4cccc(C=C(C#N)C(=O)Nc5ccccc5C(=O)O)c4)cc3)nn2)C[C@H]1C(=O)NC1CCCc2ccccc21)C1CCCCC1", "note": "(some centres unmarked) [XL5-IAP]", "values": [
      {"measurement": "lower molecular weight hRpn13 species (hRpn13-Pru) level", "result": "reduced in abundance"},
      {"measurement": "higher molecular weight hRpn13 species characteristic of ubiquitination", "setting": "longer exposure", "result": "increase in higher molecular weight hRpn13 species"}
    ]}
  ]
}
